This assay is described as follows: qHTS Assay to Find Inhibitors of Chronic Active B-Cell Receptor Signaling. The note with it: ABC-DLBCL IkBa-CBG/CBR reporter, luminescence ratio (green luciferase fused to IkBa over red control in TMD8 lymphoma cells), 4 h. Summed up: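 Cell line TMD8 (human ABC DLBCL), stably expressing tet-inducible CBG68-IkBa fusion and CBR; IMDM/0.5% FBS; cpd up to 46 uM; dox induction, 4 h, 37C/5% CO2; dual luminescence; green/red ratio; MG132 control.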
Background: Quantitative high-throughput screening tests each substance at several concentrations.

[1] abbreviates: measured here: CBR red luminescence, cell number.
The mark [2] stands for this setting: measured here: IkBa-CBG green luminescence.

Here are results for 63 molecules from PubChem BioAssay AID493014 (National Center for Advancing Translational Sciences (NCATS), 2011).

Structures are written as SMILES. Some of the results follow. Further columns of the screen follow, without active or inactive calls. The list favours compounds with an active or inconclusive main result. The note in brackets gives the kind of curve behind each potency; many fits are weak.

For orientation: AC50 means the midpoint of the concentration-response curve, whichever way the signal moves. For the molecule `CCC1=C(OC(=O)N(CC)CC)N2C(=O)OC(=NCCc3c[nH]c4ccccc34)[C@]2(Cc2ccccc2)[C@H]2C1=CC[C@H]1C(=O)N(C)C(=O)[C@H]12`, the AC50 under setting [1] was 11.2 µM [falling, single point].
The same measure, in the same setting: to `C=C(C)C(=O)N1CC2(CC(c3cccc(NC(=O)/C=C\C=C/C)c3)=NO2)C[C@H]1C(N)=O` (stereo partly drawn) belongs 20 µM [falling, partial curve, poor fit].
The same measure, in the same setting: the result for `CCN(C(=O)CN1C(=O)c2ccc([N+](=O)[O-])cc2C1=O)C1CCCCC1` reads 14.1 µM [rising, single point].
On the same count and under the same terms, the result for `CC(Cc1c[nH]c2ccccc12)NC(=O)C1CCCNC1=O` (stereo not drawn) reads 17.8 µM [falling, partial curve]; that for `CCN(CC(=O)Nc1ccc(NC(C)=O)cc1)C(=O)/C=C/c1cn(Cc2ccccc2)nc1-c1cccnc1`, 0.116 µM [rising, full curve, poor fit]; that for `COc1ccc(CCc2nc(-c3cccs3)no2)cc1`, 7.94 µM [rising, partial curve].
As to `Cc1cccc(NC(=O)CSc2nc(=O)n(Cc3cccnc3)c3c2CCC3)c1`, under setting [1], the AC50 was 22.4 µM [falling, single point].
Regarding `CC12CCC(=O)N1C(C(=O)Nc1nc(-c3ccc(F)c(F)c3)cs1)CS2` (stereo not drawn), under setting [1], the AC50 was 7.31 µM [falling, partial curve].
Take `Cc1cc(=O)oc2cc(NC(=S)NNC(=O)c3c(Cl)cnn3C)ccc12`: the AC50 under setting [1] was 2.24 µM [rising, full curve].
The same measure, in the same setting: the result for `COc1ccc2oc(C(=O)OCC(=O)N3CCN(S(=O)(=O)c4ccc(C)cc4)CC3)c(C)c2c1` reads 6.31 µM [rising, partial curve, poor fit]; that for `CCOc1ccccc1OCCCC(=O)ON=C(N)c1ccccc1`, 8.2 µM [rising, partial curve]; that for `O=C(CCCOc1ccccc1)Nc1cccc(C(=O)O)c1`, 11.6 µM [falling, partial curve].
Regarding `C=CCNC(=S)N/N=C/c1cn(C)c2ccccc12`, the AC50 under setting [2] was 11.2 µM [falling, partial curve].
As for `CC(=O)N(Nc1ccccc1)c1ccccc1`, under setting [1], the AC50 is 35.5 µM [rising, partial curve, poor fit].
Turning to `CC1=Nc2ccccc2N=C(NC(=O)c2ccccc2)C1c1ccc(Cl)cc1` (stereo not drawn), the AC50 under setting [1] was 3.55 µM [rising, single point].
In the case of `COc1cc(NC(=O)C/C(C)=N/NC(=O)C(OC)c2ccccc2)c(OC)cc1Cl` (stereo not drawn), the AC50 under setting [1] was 29.1 µM [falling, single point].
Turning to `Cc1cc(C)nc(SCc2nnc(SCC(=O)N3CCCc4ccccc43)o2)n1`, the AC50 under setting [1] is 0.562 µM [rising, partial curve, poor fit].
On the same count and under the same terms, the result for `N#C[C@H]1[C@H](c2ccccc2)[C@](C#N)(C(=O)c2ccccc2)[C@@H]2C=Cc3ccccc3N21` reads 6.31 µM [falling, single point].
On the same count and under the same terms, to `Cc1nn(C)cc1/C=C/C(=O)c1ccc(O)cc1` belongs 23.1 µM [falling, partial curve, poor fit]; to `CCc1sc(C(=O)Nc2ccc(N3CCOCC3)cc2)cc1C`, 1.84 µM [rising, partial curve].
Still for that read-out and setting: the result for `CCOc1ccc(-c2noc(-c3cccnc3)n2)cc1OC` reads 3.55 µM [rising, partial curve, poor fit]; that for `O=C(CSc1nnc2c(n1)[nH]c1ccccc12)Nc1cccc(S(=O)(=O)N2CCOCC2)c1`, 6.31 µM [falling, single point]; that for `C/C(CCc1oc2ccccc2c1-c1ccc(C)o1)=N/O`, 25.1 µM [falling, single point].
For `Cc1ccc(C(C)C)c(OCc2nnc3n2CCCCC3)c1`, the AC50 under setting [1] is 0.146 µM [falling, full curve, poor fit].
`COc1ccc(C2=Nn3c(nnc3-c3ccc(OC)cc3)SC2)cc1`: the AC50 under setting [2] is 5.17 µM [falling, partial curve].
Regarding `COc1ccc(NC(=O)c2ccco2)cc1NC(=O)c1ccco1`, the AC50 under setting [1] is 1.41 µM [rising, partial curve, poor fit].
Still for that read-out and setting: to `Cc1cccc(NC(=O)CSc2ncnc3sc(C)cc23)c1` belongs 2.51 µM [falling, partial curve].
Regarding `COc1cc(O)c2c(=O)c3c(O)ccc(O)c3oc2c1`, the AC50 under setting [1] was 6.51 µM [rising, partial curve].
For the molecule `CCOC(=O)c1nnsc1NC(C)=O`, the AC50 under setting [1] was 23.1 µM [rising, single point].
Same read-out and setting: to `COC(=O)Nc1nnc(SCc2ccc(C)cc2)s1` belongs 8.2 µM [rising, partial curve, poor fit].
For `CC(=O)c1cccc(NC(=O)N2CCCC2C(=O)NCc2ccc3c(c2)OCO3)c1` (stereo not drawn), under setting [1], the AC50 was 20 µM [rising, partial curve, poor fit].
`Cc1ccc2nc(NCc3ccc(F)cc3)c3nncn3c2c1`: the AC50 under setting [1] was 0.501 µM [rising, full curve, poor fit].
As to `Cc1cc(C(N)=O)nn1-c1c(Cl)cc(Cl)cc1Cl`, the AC50 under setting [2] is 14.1 µM [falling, partial curve, poor fit].
With `COc1cc(/C=C(\C#N)C(=O)Nc2cccc(C(=O)O)c2)ccc1OCc1ccc(F)cc1`, the AC50 under setting [1] is 11.2 µM [falling, partial curve].
With `COc1ccc(NC(=O)c2cc(C(C)C)on2)c(OC)c1`, the AC50 under setting [1] is 0.326 µM [rising, full curve, poor fit].
For the molecule `O=C(OCC1OC(n2ccc(=O)[nH]c2=O)C(O)C1OC(=O)c1ccccc1)c1ccccc1` (stereo not drawn), the AC50 under setting [1] was 4.11 µM [falling, single point].
In the case of `Cc1cc(C)c(NC(=O)CSc2nnc(CNC(=O)c3ccccc3F)o2)c(C)c1`, the AC50 under setting [1] is 35.5 µM [rising, single point].
The same measure, in the same setting: the result for `Cc1noc(C)c1C(=O)N1CCN(CCc2ccccc2)CC1` reads 0.731 µM [rising, full curve, poor fit].
On the same count and under the same terms, to `O=C(NC(CCl)c1ccccc1)c1ccc(Cl)cc1` (stereo not drawn) belongs 8.91 µM [rising, partial curve, poor fit]; to `CCC(=O)NC(=S)Nc1ccc(-c2nc3ccccc3s2)cc1`, 0.0517 µM [rising, full curve, poor fit]; to `COc1cc(OC)cc(C(=O)NCCOC23CC4CC(CC(C4)C2)C3)c1`, 17.8 µM [falling, single point].
Turning to `COc1ccc(/C(N)=N/OC(=O)c2c(-c3ccccc3Cl)noc2C)cc1OC`, the AC50 under setting [1] is 20 µM [rising, partial curve, poor fit].
In the case of `CC(NC(=O)C(=O)N/N=C\c1ccc([N+](=O)[O-])cc1)c1ccccc1` (stereo not drawn), the AC50 under setting [1] was 0.794 µM [rising, full curve, poor fit].
The same measure, in the same setting: the result for `CCOC(=O)c1ccc(N2C(=O)C3C(C2=O)C(C(=O)c2ccc(Cl)cc2)N2CCCC32)cc1` (stereo not drawn) reads 3.26 µM [falling, partial curve, poor fit]; that for `COc1ccc(CCNC(=O)c2cc3c(=O)n(C)c4ccccc4c3n2C)cc1OC`, 22.4 µM [rising, partial curve, poor fit]; that for `O=C(O)Cn1cc(C(=S)N2CCOCC2)c2ccccc21`, 0.00651 µM [falling, full curve, poor fit].
Turning to `CCOC(=O)c1c(C)n(C)c2ccc(OCC(O)Cn3c(C)nc4ccccc43)cc12` (stereo not drawn), the AC50 under setting [1] is 3.26 µM [falling, full curve, poor fit].
The same measure, in the same setting: the result for `CCOc1ccc(C(=O)O/N=C(\N)c2ccccn2)cc1` reads 2.82 µM [falling, full curve].
For `O=[N+]([O-])c1ccc(Cl)c(S(=O)(=O)Nc2cccc(-c3ccc(N4CCCC4)nn3)c2)c1`, under setting [2], the AC50 was 6.51 µM [rising, partial curve, poor fit].
`Cn1nc(C(=O)Nc2ccc3c(c2)OCCO3)cc1C(=O)O`: the AC50 under setting [1] was 11.2 µM [falling, partial curve, poor fit].
`COC(=O)C1=CN(Cc2ccccc2)C=C(C(=O)OC)C1c1ccc(O)c(OC)c1`: the AC50 under setting [1] is 6.31 µM [falling, single point].
Same read-out and setting: the result for `Cn1cc(Br)c(C(=O)NNC(=O)c2ccc(Cl)cc2)n1` reads 3.66 µM [falling, partial curve]; that for `O=C(Nc1cccc(C(F)(F)F)c1)c1ccc2nc(N3C(=O)CCC3=O)sc2c1`, 35.5 µM [falling, single point].
`CCC(=O)Nc1ccc(C(=O)CSc2nnc(-c3ccc(O)cc3)n2CC2CCCO2)cc1` (stereo not drawn): under setting [1], the AC50 was 0.651 µM [falling, partial curve, poor fit].
Still for that read-out and setting: the result for `Cc1ccc2c(c1)N(CC(=O)N1CCCc3ccccc31)C(=O)C(C)O2` (stereo not drawn) reads 35.5 µM [rising, single point].
As for `CCOC(=O)C1CCN(C(=O)CCN2C(=O)C3C4C=CC(C4)C3C2=O)CC1` (stereo not drawn), the AC50 under setting [1] was 2.31 µM [rising, partial curve, poor fit].
The same measure, in the same setting: to `CCc1ccc(N/C(SC)=C(/C#N)C(N)=O)cc1` belongs 0.708 µM [falling, full curve, poor fit].
The same measure, in the same setting: to `CCN(CC)CC(=O)Nc1scc2c1c(=O)oc1ccccc12` belongs 2.82 µM [rising, full curve, poor fit]; to `CCc1nc2ccccc2c(C(=O)OCC(=O)N(CC(C)C)c2c(N)n(Cc3ccccc3)c(=O)[nH]c2=O)c1C`, 29.1 µM [falling, single point]; to `CCn1nc(C)c(/C=N\NC(=O)c2ccc3c(c2)OCO3)c1C`, 8.2 µM [falling, partial curve].
For the molecule `COc1cc(CCC(=O)NCc2ccc3c(c2)CCN3C(=O)c2ccc(F)cc2)cc(OC)c1OC`, the AC50 under setting [1] was 6.31 µM [rising, single point].
For the molecule `O=C(NCc1ccccc1)c1ccc(-c2ccccc2C(F)(F)F)o1`, the AC50 under setting [1] is 29.1 µM [falling, single point].
Same read-out and setting: the result for `O=C(N/N=C/c1ccc2cccnc2c1)c1ccco1` reads 10 µM [falling, partial curve, poor fit].
